Source: publication doi:10.1101/2025.06.20.660829
No constants are given. Whether binding was seen depends on the method and setting. Binding seen in cells or lysates may run through a third protein. A result given as binding can be weak or reduced; the word gives no strength. Where a sequence is shown, tags or fusion partners need not be part of it.

Target: 3xFlag-DCTD (distal C-terminus of CaV1.3 α1D) (not stated (human or rat cDNA cloned)) (UniProt Q01668)
Experiment: co-IP

- binding: binds
B1: IQNg, HA-tagged (domain or fragment, UniProt Q04940 26-47)
chain: ANAAAAKIQASFRGHMARKKIK
